Measurements reported in PubChem BioAssay AID1224828 (NIAID, 2016)
Shown is an unselected part of about 17,000 deposited reagents. 762 of them (4.5%) count as active. 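Active calls include both raised and lowered p65 entry, mostly lowered; wells with fewer than 50 cells lack a z-score.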 Raw values vary from plate to plate and are shown uncorrected. Entries without a mark were called inactive. Reagents against one gene are numbered here.

Aim: 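Regulators linking TLR4 signalling to p65 nuclear translocation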 (primary screen)
Cells: mouse RAW264.7 G9 macrophage reporter cells (GFP-p65, Tnf promoter-mCherry)
Reagents: siRNA pool against mouse genes, 100 nM
Timing: 2 days siRNA transfection, then 40 min LPS before fixation
Treatment: LPS (Salmonella minnesota R595) at 10 ng/ml
Read-out: 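Microscopy ratio of nuclear to perinuclear-ring GFP-p65 signal, scaled to the plate median; gene score is the average of two replicate robust z-scores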
Scale: p65 translocation robust z-score: higher = more nuclear NF-kappaB p65 after LPS than the plate median; nuclear/cytoplasmic p65 ratio: higher = more nuclear NF-kappaB p65
Call rule: 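Active if robust z is above 3.3 (negative regulators) or below -1.56, the Tlr4 control median (positive regulators); activity score 50 or more; control wells not called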
Calls: active = hit (p65 shift raised or lowered); inactive = no clear change

| target | pool no. | p65 translocation robust z-score | nuclear/cytoplasmic p65 ratio, rep 1 | nuclear/cytoplasmic p65 ratio, rep 2 | low cell count flag |
| --- | --- | --- | --- | --- | --- |
| Dab1 | 1 | -0.37 | 1.41 | 1.33 | enough cells to score |
| Dab1 | 2 | 1.27 | 1.66 | 2.12 | enough cells to score |
| Klc1 | 1 | 1.98 | 1.81 | 1.57 | enough cells to score |
| Plscr1 | 1 | 0.88 | 1.49 | 1.29 | enough cells to score |
| Atxn10 | 1 | 0.52 | 1.49 | 1.28 | enough cells to score |
| Il17b | 1 | 1.82 | 1.68 | 1.65 | enough cells to score |
| Mfap1a | 1 | – | 1.56 | 1.23 | fewer than 50 cells per well; well left out of scoring |
| Trim37 | 1 | 0.44 | 1.55 | 1.59 | enough cells to score |
| Lamtor2 | 1 | 0.56 | 1.8 | 1.63 | enough cells to score |
| Klra8 | 1 | -0.65 | 1.37 | 1.31 | enough cells to score |
| Ppm1n | 1 | 0.42 | 1.65 | 1.86 | enough cells to score |
| Antxr1 | 1 | -0.09 | 1.58 | 1.69 | enough cells to score |
| Stat2 | 1 | -1.33 | 1.36 | 1.36 | enough cells to score |
| Acp2 | 1 | 0 | 1.64 | 1.6 | enough cells to score |
| Acaa1b | 1 | -1.56 | 1.42 | 1.36 | enough cells to score |
| Mrm2 | 1 | – | 1.1 | 1.22 | fewer than 50 cells per well; well left out of scoring |
| Or10ag58 | 1 | -0.04 | 1.75 | 1.52 | enough cells to score |
| Dpp8 | 1 | 0.9 | 1.5 | 1.48 | enough cells to score |
| Psmd9 | 1 | – | 1.3 | 1.16 | fewer than 50 cells per well; well left out of scoring |
| Shmt2 | 1 | -1.34 | 1.33 | 1.39 | enough cells to score |
| Jchain | 1 | -1.31 | 1.35 | 1.21 | enough cells to score |
| Cd2bp2 | 1 | 0.74 | 1.7 | 1.35 | enough cells to score |
| Sec61a1 | 1 | – | 1.43 | 1.11 | fewer than 50 cells per well; well left out of scoring |
| Ythdf2 | 1 | – | 1.21 | 1.07 | fewer than 50 cells per well; well left out of scoring |
| Vstm4 | 1 | 0.05 | 1.47 | 1.4 | enough cells to score |
| Defa-rs10 | 1 | 0.26 | 1.59 | 1.6 | enough cells to score |
| Pacsin3 | 1 | 0.97 | 1.55 | 1.56 | enough cells to score |
| Or4f14d | 1 | 0.03 | 1.52 | 1.51 | enough cells to score |
| Ldhal6b | 1 | -0.55 | 1.2 | 1.24 | enough cells to score |
| Scarf2 | 1 | 0.35 | 1.6 | 1.53 | enough cells to score |
| Calcb | 1 | -0.34 | 1.57 | 1.7 | enough cells to score |
| Fut8 | 1 | 0.36 | 1.45 | 1.45 | enough cells to score |
| Zbtb25 | 1 | 0.4 | 1.59 | 1.54 | enough cells to score |
| Or5ak23 | 1 | -0.79 | 1.29 | 1.19 | enough cells to score |
| Sf3b6 | 1 | -0.43 | 1.52 | 1.35 | enough cells to score |
| H2ac6 | 1 | 0.23 | 1.63 | 1.42 | enough cells to score |
| Dspp | 1 | -0.01 | 1.52 | 1.34 | enough cells to score |
| Mx2 | 1 | 0.22 | 1.52 | 1.33 | enough cells to score |
| Mageb2 | 1 | 0.34 | 1.8 | 1.57 | enough cells to score |
| Tmem131l | 1 | -1.25 | 1.34 | 1.42 | enough cells to score |
| Anxa5 | 1 | 0.15 | 1.69 | 1.59 | enough cells to score |
| Lypd9 | 1 | – | 1.1 | 1.09 | fewer than 50 cells per well; well left out of scoring |
| Slco1b2 | 1 | – | 0 | 0 | fewer than 50 cells per well; well left out of scoring |
| Atp6v1f | 1 | -0.31 | 1.6 | 1.53 | enough cells to score |
| Crisp1 | 1 | -1.73 (active) | 1.41 | 1.41 | enough cells to score |
| Grwd1 | 1 | -0.22 | 1.53 | 1.59 | enough cells to score |
| Ttpal | 1 | 1.06 | 1.46 | 1.64 | enough cells to score |
| Slc35e3 | 1 | – | 1.53 | 1.23 | fewer than 50 cells per well; well left out of scoring |
| Or1m1 | 1 | -0.65 | 1.53 | 1.32 | enough cells to score |
| Rapgef4 | 1 | 0.65 | 1.33 | 1.67 | enough cells to score |
| Rapgef4 | 2 | – | 1.51 | 1.34 | fewer than 50 cells per well; well left out of scoring |
| Or5w18 | 1 | -1.32 | 1.49 | 1.35 | enough cells to score |
| Cnih1 | 1 | -1.26 | 1.36 | 1.62 | enough cells to score |
| Myh11 | 1 | -0.24 | 1.43 | 1.29 | enough cells to score |
| Krtap19-4 | 1 | 1.55 | 1.59 | 1.8 | enough cells to score |
| Pex11a | 1 | 0.21 | 1.5 | 1.42 | enough cells to score |
| Prkcb | 1 | 0.15 | 1.61 | 1.39 | enough cells to score |
| Rgn | 1 | -0.07 | 1.32 | 1.28 | enough cells to score |
| Zbbx | 1 | 0.53 | 1.42 | 1.6 | enough cells to score |
| Rbak | 1 | -1.49 | 1.33 | 1.28 | enough cells to score |
| Astn1 | 1 | -1 | 1.38 | 1.45 | enough cells to score |
| Prg3 | 1 | -0.65 | 1.4 | 1.33 | enough cells to score |
| Mrpl16 | 1 | -1.24 | 1.58 | 1.07 | enough cells to score |
| Gabrr2 | 1 | -0.96 | 1.3 | 1.25 | enough cells to score |
| Ccdc85a | 1 | – | 1.45 | 1.39 | fewer than 50 cells per well; well left out of scoring |
| Anks4b | 1 | 0.94 | 1.58 | 1.69 | enough cells to score |
| Tppp3 | 1 | – | 1.28 | 1.46 | fewer than 50 cells per well; well left out of scoring |
| Cptp | 1 | 0.48 | 1.74 | 1.82 | enough cells to score |
| Or51a42 | 1 | 0.31 | 1.51 | 1.28 | enough cells to score |
| Klri2 | 1 | -0.82 | 1.31 | 1.38 | enough cells to score |
| Rhbdf2 | 1 | 0.01 | 1.62 | 1.61 | enough cells to score |
| Akap19 | 1 | – | 1.76 | 1.91 | fewer than 50 cells per well; well left out of scoring |
| Glt28d2 | 1 | – | 1.14 | 1.23 | fewer than 50 cells per well; well left out of scoring |
| Rara | 1 | -1.49 | 1.33 | 1.29 | enough cells to score |
| Or12k5 | 1 | 1.93 | 1.92 | 1.65 | enough cells to score |

Single entries from the entries so far.
Rbak, nuclear/cytoplasmic p65 ratio, rep 2 → 1.28
Dab1 #2, p65 translocation robust z-score = 1.27
Rhbdf2, p65 translocation robust z-score: 0.01
Under “nuclear/cytoplasmic p65 ratio, rep 2”, Rapgef4 #2 shows 1.34
